# Data: PubChem BioAssay AID1439 (NMMLSC, 2008)
# Chains of the proteins cited; added tags and fusions are not shown.
# UniProt P09471, whole entry, looked up: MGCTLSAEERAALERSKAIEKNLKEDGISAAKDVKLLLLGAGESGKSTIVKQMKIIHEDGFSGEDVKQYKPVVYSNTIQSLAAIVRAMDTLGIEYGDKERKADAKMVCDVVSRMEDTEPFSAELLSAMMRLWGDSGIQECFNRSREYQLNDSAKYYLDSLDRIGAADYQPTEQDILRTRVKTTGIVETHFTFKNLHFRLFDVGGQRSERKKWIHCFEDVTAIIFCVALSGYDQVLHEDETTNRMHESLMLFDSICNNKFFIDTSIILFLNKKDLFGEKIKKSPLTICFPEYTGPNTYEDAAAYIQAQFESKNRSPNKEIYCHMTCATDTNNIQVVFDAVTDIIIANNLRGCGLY
# The campaign covered roughly 220,000 compounds. About 770 (0.35%) were called active. Inconclusive means that the source gave no clear call. Such entries were picked first, then a sample of the others. Rule as the data show it: active = binding response below about 49% or above about 150%; inconclusive = no clear call, values can overlap the other calls; inactive = in between.
# Target: Guanine nucleotide-binding protein G(o) subunit alpha (Homo sapiens) (UniProt P09471)
# Assay: RGS7-Galphao binding modulators, primary screen, biochemical, multiplexed bead flow cytometry (AID 1439);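 also: fluorescent Galphao held in activated GDP-AlF4 state binding bead-coupled RGS7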
# Details: at 10 µM, actives lie on both sides
row,SMILES,binding response (% of control)
1,Cn1cnc([N+](=O)[O-])c1Sc1nnc(-c2cccnc2)n1C,inconclusive: 178%
2,CCOC(=O)C(=CNc1ccc(Oc2cncc(Cl)c2)nc1)C(=O)OCC,inconclusive: 99.2%
3,CCOc1ccc(NS(=O)(=O)c2ccc3[nH]c(=O)c(=O)[nH]c3c2)cc1,inconclusive: 103%
4,CCOc1ccc(-n2c(O)c(/C=N/Nc3nnc(C)c(=O)[nH]3)c3ccccc3c2=O)cc1,inconclusive: 120%
5,CC(C)CC(=O)c1c[nH]c(C(=O)N2CCN(Cc3ccccc3)CC2)c1,inconclusive: 99.6%
6,Cc1nc(CSc2n[nH]c(=O)n2-c2ccccc2)cs1,inconclusive: 112%
7,Cc1cccc(C(=O)N[C@H](C(=O)Nc2ncc(C)s2)C(C)C)c1,inconclusive: 98.7%
8,COc1ccc(NC(=O)NCCc2ccc(Cl)cc2)cc1OC,active: -3.29%
9,COC(=O)c1sccc1NC(=S)Nc1cccc(F)c1,inconclusive: 84.3%
10,Cc1cc(NC(=O)CN2C(=O)NC3(CCCCCC3)C2=O)no1,inconclusive: 106%
11,COc1cnc(-c2ccccn2)nc1N(C)C,inconclusive: 86.1%
12,Cn1c(C2=C(O)CN(Cc3ccccc3)C2=N)nc2ccccc21,inconclusive: 84.3%
13,CNc1nc2c(C)cccn2c(=O)c1C=Nc1ccc(OC)cc1,inconclusive: 66%
14,COc1ccc(CNC(=O)CCc2c(C)nc3cc(-c4ccccc4OC)nn3c2C)cc1,inconclusive: 129%
15,CC(C)NOC(=O)c1ccc(Cl)cc1,inactive: 92.3%
16,CCn1c(SCC(=O)Nc2sc(C)c(C)c2C#N)nnc1C1CC1,inconclusive: 115%
17,Cc1onc(-c2c(Cl)cccc2Cl)c1C(=O)N=S(C)(=O)c1ccccc1 (stereo unspecified),inconclusive: -41.4%
18,Cn1c(=O)[nH]c(=O)c2c1nc(N/N=C/c1cccnc1)n2Cc1ccc(Cl)cc1,inconclusive: 97.6%
19,COc1cc(N(C(=O)Cc2cccs2)C(C(=O)NC2CCCCC2)c2cccc(OC)c2OC)ccc1-n1cnnn1 (stereo unspecified),inactive: 88.4%
20,Cc1cc(-c2ccccc2C(=O)Nc2ccccc2O)on1,inconclusive: 171%
21,O=C(NNC(=O)c1cccs1)c1ccc([N+](=O)[O-])cc1,inactive: 107%
22,O=C(COC(=O)/C=C/c1ccc([N+](=O)[O-])cc1)NCc1ccc2c(c1)OCO2,inconclusive: 59.5%
23,CC1CCCCN1C(=O)CCn1c(=S)oc2ccccc21 (stereo unspecified),inconclusive: 142%

row,SMILES,binding response (% of control)
1,Cc1ccc(C(=O)NCC(=O)OCC(=O)c2ccc3c(c2)NC(=O)CO3)cc1,inactive: 94.8%
2,CSc1nc(NCCCO)c2c3c(sc2n1)CN(C)CC3,inconclusive: 111%
3,S=c1cnc2ccccc2[nH]1,inactive: 118%
4,CC1Cc2ccccc2N1CC(=O)Nc1ccc(S(N)(=O)=O)cc1 (stereo unspecified),inconclusive: 65.1%
5,Cc1ncsc1CCOC(=O)c1ccc(Cl)cc1,inconclusive: 106%
6,Cc1cccc(Oc2nc3c(c(=O)n(C)c(=O)n3C)n2C)c1,inconclusive: 97.2%
7,Cc1ccc2nc(-c3ccc(NC(=O)CSc4nc(N)cc(=O)[nH]4)cc3)sc2c1,inconclusive: 98.6%
8,CCOc1ccc2[nH]c(=O)c(CN(CCN3CCCC3)C(=S)Nc3ccccc3OC)cc2c1,inactive: 99.9%
9,NC(=O)C1CCN(CC(=O)NC(=O)NC2CCCC2)CC1,inactive: 104%
10,O=C(C1CCCN(Cc2ccncc2)C1)N1CCc2ccccc2C1 (stereo unspecified),inactive: 99.6%
11,CCN(CC)c1ccc(N=Cc2ccc([N+](=O)[O-])o2)cc1,inactive: 55.9%
12,S=C(c1ccc(-c2ccccc2)o1)N1CCCCC1,inconclusive: 103%
13,Cn1c(=O)c2c(ncn2CC(=O)N/N=C/C=C/c2ccco2)n(C)c1=O,inconclusive: 91%
14,CCCCc1cc(=O)oc2cc(C)c(CN3CCCC3)c(O)c12,active: 160% [activator]
15,O=C(N/N=C/c1cccnc1)NC12CC3CC(CC(C3)C1)C2,inconclusive: 98.6%
16,Oc1ccc(CCC2CCCCN2Cc2nc(C3CC3)no2)cc1 (stereo unspecified),inactive: 97.7%
17,COc1cccc(NC(=O)c2ccccc2-c2nc(-c3ccccc3)no2)c1,inactive: 87.4%
18,COc1cc(OC)cc(C(=O)N[C@H](C(=O)Nc2cccc(S(=O)(=O)N3CCCC3)c2)C(C)C)c1,inconclusive: 95.5%
19,Cc1ccc(C(=O)NC(NCc2ccco2)C(Cl)(Cl)Cl)cc1 (stereo unspecified),inactive: 100%
20,Cc1ccc(NS(=O)(=O)c2cc(NC(=O)c3cc(=O)[nH]c(=O)[nH]3)ccc2Cl)c(C)c1,inconclusive: 35%
21,Cc1ccc(C)c(SCC(=O)c2ccc[nH]2)c1,inconclusive: 96.7%
22,CCc1cccc(NC(=O)c2cc(S(=O)(=O)N(C)C)ccc2N2CCCC2)c1,inconclusive: 102%
23,Fc1ccc(-n2cc(-c3ccccc3)[n+]3c2SCC3)cc1,inconclusive: 74.7%

row,SMILES,binding response (% of control)
1,C/C(=N\Nc1cccc(C(=O)O)c1)c1ccc2c(c1)Nc1ccccc1S2,inconclusive: 91.3%
2,CCc1cccc(C)c1NC(=O)CN(C)Cc1ccc(Br)cc1,inconclusive: 106%
3,O=C(O)c1ccccc1C(=O)Nc1ccc(Oc2cccc3ccccc23)cc1,inconclusive: 107%
4,N#CC1=C(N)N=C(SCc2cccc3ccccc23)C(C(N)=O)C12CCCCC2 (stereo unspecified),inactive: 102%
5,NC(=O)c1ccsc1NC(=O)COC(=O)C1CC2CCCC(C1)C2=O (stereo unspecified),inconclusive: 104%
6,CCCCC(=O)N(CCOC)c1nnc(-c2ccccc2C)s1,inconclusive: 101%
7,Cc1ccc(C(=O)COc2nc(C)nc3ccccc23)cc1,inconclusive: 108%
8,CC(C)C(=O)Nc1ccc(N2CCN(c3ccc(F)cc3)CC2)cc1,inconclusive: 104%
9,CCOC(=O)c1ccc(NC(=S)NNC(C)(C)C)cc1,inconclusive: 106%
10,CCN(C(=O)c1cc2c(=O)[nH]c3ccc(C)cc3c2s1)c1cccc(C)c1,inconclusive: 106%
11,CCOC(=O)c1c(C)[nH]c(N=Nc2cc(C(=O)O)cc(C(=O)O)c2)c1C,inconclusive: 116%
12,Cc1nc(-c2ccccn2)nc(SCC(=O)N2CCOCC2)c1Cl,inconclusive: 95.7%
13,Cc1cc2cc(CNC(=O)C(C)Oc3ccccc3)ccc2n1C (stereo unspecified),inconclusive: 97.3%
14,Cn1c(=O)[nH]c(=O)c2c1nc1n2CCCN1Cc1ccccc1,inconclusive: 107%
15,CC(C)(C)c1cc(NC(=O)Nc2ccc(Cl)cc2Cl)no1,inconclusive: 100%
16,CN1CCN(Cc2c(O)ccc3c2oc(=O)c2ccccc23)CC1,inactive: 99.2%
17,CCc1nccn1S(=O)(=O)c1cc(C)c(OC)cc1C,inactive: 103%
18,COC(=O)Cc1[nH]n(-c2nc3ccccc3s2)c(=O)c1C(C)=Nc1ccc(OC)cc1,inconclusive: 197%
19,CCNCc1nc2cc(Cl)ccc2c(=O)[nH]1,inactive: 93.5%
20,CC(C)CN(CCCNC(=O)CN1C(=O)CSc2ccc(S(=O)(=O)N3CCOCC3)cc21)CC(C)C,inconclusive: 131%
21,CCC(C)[C@H](NC(=O)NCc1ccc(OC)c(OC)c1)C(=O)O (stereo partly specified),inconclusive: 99.2%
22,CS(=O)(=O)CC(=O)Nc1ccc2nc3n(c(=O)c2c1)CCCCC3,inconclusive: -523%
23,COCCCn1c(=O)/c(=C\c2ccc(OC(F)F)c(OC)c2)s/c1=C(/C#N)C(N)=O,inconclusive: -5.35%

# 3 compounds already listed, arranged by formula weight, rising.
row,SMILES,binding response (% of control)
7,Cc1ccc(C(=O)COc2nc(C)nc3ccccc23)cc1,inconclusive: 108%
5,NC(=O)c1ccsc1NC(=O)COC(=O)C1CC2CCCC(C1)C2=O (stereo unspecified),inconclusive: 104%
20,CC(C)CN(CCCNC(=O)CN1C(=O)CSc2ccc(S(=O)(=O)N3CCOCC3)cc21)CC(C)C,inconclusive: 131%

# The listing continues:

row,SMILES,binding response (% of control)
1,O=C(CSc1nnc2n1CCCN2C(=S)Nc1ccc(Cl)cc1)c1ccccc1,inactive: 100%
2,CCN(CC)CCCNC(=O)C1CCN(c2ncnc3c2sc2cccc(F)c23)CC1,inconclusive: 88.6%
3,Cc1oc(-c2cc(Cl)cc(Cl)c2)cc1C(=O)NCCc1ccccc1,inactive: 98.9%
4,Cc1ccc(Sc2ccc(NC(=O)CCl)cc2)cc1C,inactive: 100%
5,Cc1c(C#N)c(NC(=O)CCl)n(Cc2ccccc2)c1C,inactive: 98.8%
6,COc1cc2ncc(C(=O)c3ccccc3)c(N3CCN(Cc4ccccc4)CC3)c2cc1OC,inconclusive: 81.8%
7,COc1ccc(C(=O)NCC(=O)N/N=C/c2ccc([N+](=O)[O-])o2)cc1OC,inconclusive: 107%
8,CC(OC(=O)c1ccccc1NS(=O)(=O)c1cccc(N)c1)C(=O)N(C)Cc1ccccc1 (stereo unspecified),inactive: 85.6%
9,Cc1nc2ccccc2c2c(N)c3ccccc3n12,inconclusive: 94%
10,Cn1c(SCC(=O)Nc2cc(Cl)cc(Cl)c2)nnc1-c1ccc2nonc2c1,inconclusive: 105%
11,COc1ccc(/C=N/NC(=O)c2ccc(Cl)c(S(N)(=O)=O)c2)cc1OCC(N)=O,inconclusive: 193%
12,C=C(C)c1cccc(C(C)(C)NC(=O)N2CCN(CC)CC2)c1,inactive: 98.2%
13,Cc1cc(C)nc(SCc2cn3c(C)cccc3n2)n1,inconclusive: 88.7%
14,CCN1CCN(c2nc(Nc3ccccc3F)nc(N)c2[N+](=O)[O-])CC1,inconclusive: 71.3%
15,Cc1c(NC(=O)c2ccc(Cl)nc2)cccc1-c1nc2cccnc2s1,inconclusive: 76.8%
16,CCOc1ccc2c(c1)nc(C)n2C,inconclusive: 95.3%
17,Cc1cc(C)nc(NC(=O)C2c3ccccc3Oc3ccccc32)n1,inactive: 99.9%
18,O=C1C(NS(=O)(=O)c2ccccc2)=C(N2CCN(c3ccc(F)cc3)CC2)C(=O)c2ccccc21,inconclusive: 111%
19,Oc1ccc(N=Cc2ccc(O)c(O)c2)cc1,active: 49%
20,COc1ccc(/C=C2\SC(=S)N(CC3CCCO3)C2=O)cc1 (stereo unspecified),inconclusive: 75.5%
21,Cc1ccc(N2CC(=O)N(NC(=O)Nc3ccc(Cl)c(Cl)c3)CC2=O)cc1,inconclusive: 76.2%
22,O=C(Cn1c(-c2ccccn2)nc2ccccc21)N/N=C/c1cccnc1,inconclusive: 114%
